This data set is described as follows: peptide synthesis. Particulars: whole synthesis, HPLC.

Where a sequence shows no end group, the ends are not given.

Results on one sequence are retold here after paper PMC5814047 (PLoS ONE, 2018).

For ACSWWSIHLCG, the “purity (crude or final not stated)” value is given as about 95%.
